Data as given in patent US20260217701A1, “SELECTIVE BET INHIBITORS AND USES THEREOF” (Tay Therapeutics Limited, priority 2022, published 2026).
Several values for one entry are separate records, joined by “and”; a condition that tells them apart may be missing. Equal entries are not always repeated. The source gives many values for each of these; only a part stands here.

Experiment: CIA study: animal body weight
Settings: for Animal body weight percent change (%): individual animals

Question: Which Animal body weight (CIA + Compound A 1 mg/kg, Day 0, 1 mg/kg) does the source give for Cn1cc(-c2ccccc2)c(-c2cn(C)c(=O)c3[nH]c(-c4cnn(C(F)(F)F)c4)cc23)cc1=O [Compound A, 6-methyl-4-(1-methyl-2-oxo-5-phenyl-1,2-dihydropyridin-4-yl)-2-(1-(trifluoromethyl)-1H-pyrazol-4-yl)-1,6-dihydro-7H-pyrrolo[2,3-c]pyridin-7-one] here?
Answer: The Animal body weight was 163 g and 165 g and 164 g and 162 g and 152 g and 169 g and 167 g.

Question: What about the Animal body weight (CIA + Compound A 1 mg/kg, Day 1, 1 mg/kg) of the same molecule?
Answer: Its Animal body weight is 167 g and 169 g and 158 g and 155 g and 170 g.

Question: And the Animal body weight (CIA + Compound A 1 mg/kg, Day 2, 1 mg/kg)?
Answer: The Animal body weight was 166 g and 169 g and 159 g and 167 g and 151 g and 165 g and 161 g.

Question: What about the Animal body weight (CIA + Compound A 1 mg/kg, Day 3, 1 mg/kg) of the same molecule?
Answer: Its Animal body weight is 165 g and 166 g and 159 g and 169 g and 156 g and 164 g and 167 g and 171 g.

Question: What about the Animal body weight (CIA + Compound A 1 mg/kg, Day 4, 1 mg/kg) of the same molecule?
Answer: Its Animal body weight is 168 g and 166 g and 159 g and 157 g and 170 g and 169 g.

Question: What about the Animal body weight (CIA + Compound A 1 mg/kg, Day 5, 1 mg/kg) of the same molecule?
Answer: The Animal body weight was 170 g and 178 g and 165 g and 172 g and 156 g and 171 g.

Question: And the Animal body weight (CIA + Compound A 1 mg/kg, Day 6, 1 mg/kg)?
Answer: Its Animal body weight is 170 g and 180 g and 157 g and 176 g and 161 g and 171 g and 175 g.

Question: What about the Animal body weight (CIA + Compound A 1 mg/kg, Day 7, 1 mg/kg) of the same molecule?
Answer: The Animal body weight was 171 g and 182 g and 157 g and 162 g and 170 g and 174 g and 169 g.

Question: And the Animal body weight (CIA + Compound A 1 mg/kg, Day 8, 1 mg/kg)?
Answer: The Animal body weight was 166 g.

Question: What about the Animal body weight (CIA + Compound A 1 mg/kg, Day 11, 1 mg/kg) of the same molecule?
Answer: Its Animal body weight is 171 g.

Question: And the Animal body weight (CIA + Compound A 1 mg/kg, Day 13, 1 mg/kg)?
Answer: The Animal body weight was 166 g.

Question: What about the Animal body weight (CIA + Compound A 1 mg/kg, Day 14, 1 mg/kg) of the same molecule?
Answer: The Animal body weight was 172 g.

Question: What about the Animal body weight (CIA + Compound A 1 mg/kg, Day 15, 1 mg/kg) of the same molecule?
Answer: Its Animal body weight is 175 g and 182 g and 154 g and 174 g and 158 g and 171 g and 168 g and 165 g.

Question: What about the Animal body weight (CIA + Compound A 1 mg/kg, Day 16, 1 mg/kg) of the same molecule?
Answer: The Animal body weight was 176 g and 182 g and 157 g and 170 g and 156 g and 173 g and 164 g and 161 g.

Question: What about the Animal body weight (CIA + Compound A 1 mg/kg, Day 17, 1 mg/kg) of the same molecule?
Answer: Its Animal body weight is 177 g and 155 g and 174 g and 157 g and 173 g and 164 g and 160 g.

Question: And the Animal body weight (CIA + Compound A 1 mg/kg, Day 18, 1 mg/kg)?
Answer: The Animal body weight was 177 g and 174 g and 156 g and 173 g and 155 g and 175 g and 164 g and 162 g.

Question: What about the Animal body weight (CIA + Compound A 1 mg/kg, Day 19, 1 mg/kg) of the same molecule?
Answer: The Animal body weight was 174 g and 170 g and 152 g and 171 g and 154 g and 176 g and 163 g and 164 g.

Question: What about the Animal body weight (CIA + Compound A 1 mg/kg, Day 20, 1 mg/kg) of the same molecule?
Answer: The Animal body weight was 181 g and 173 g and 154 g and 170 g and 175 g and 162 g and 161 g.

Question: And the Animal body weight (CIA + Compound A 1 mg/kg, Day 21, 1 mg/kg)?
Answer: The Animal body weight was 179 g and 170 g and 153 g and 166 g and 174 g and 159 g and 163 g.

Question: What about the Animal body weight (CIA + Compound A 3 mg/kg, Day 0, 3 mg/kg) of the same molecule?
Answer: The Animal body weight was 168 g and 171 g and 175 g and 167 g and 163 g and 157 g and 156 g.

Question: What about the Animal body weight (CIA + Compound A 3 mg/kg, Day 1, 3 mg/kg) of the same molecule?
Answer: Its Animal body weight is 163 g and 172 g and 175 g and 161 g and 166 g and 160 g and 158 g.

Question: What about the Animal body weight (CIA + Compound A 3 mg/kg, Day 2, 3 mg/kg) of the same molecule?
Answer: The Animal body weight was 162 g and 171 g and 173 g and 166 g and 165 g and 159 g and 158 g.

Question: What about the Animal body weight (CIA + Compound A 3 mg/kg, Day 3, 3 mg/kg) of the same molecule?
Answer: The Animal body weight was 160 g and 168 g and 170 g and 162 g and 164 g and 158 g.

Question: And the Animal body weight (CIA + Compound A 3 mg/kg, Day 4, 3 mg/kg)?
Answer: Its Animal body weight is 167 g and 173 g and 175 g and 159 g and 165 g and 156 g.

Question: What about the Animal body weight (CIA + Compound A 3 mg/kg, Day 5, 3 mg/kg) of the same molecule?
Answer: Its Animal body weight is 166 g and 177 g and 178 g and 160 g and 163 g and 168 g and 167 g and 154 g.

Question: What about the Animal body weight (CIA + Compound A 3 mg/kg, Day 6, 3 mg/kg) of the same molecule?
Answer: The Animal body weight was 163 g and 174 g and 176 g and 160 g and 164 g and 167 g and 168 g and 157 g.

Question: And the Animal body weight (CIA + Compound A 3 mg/kg, Day 7, 3 mg/kg)?
Answer: Its Animal body weight is 157 g and 172 g and 173 g and 162 g and 163 g and 164 g and 166 g and 154 g.

Question: What about the Animal body weight (CIA + Compound A 3 mg/kg, Day 15, 3 mg/kg) of the same molecule?
Answer: The Animal body weight was 161 g and 174 g and 170 g and 159 g and 166 g and 158 g.

Question: What about the Animal body weight (CIA + Compound A 3 mg/kg, Day 16, 3 mg/kg) of the same molecule?
Answer: Its Animal body weight is 158 g and 169 g and 170 g and 159 g and 165 g and 157 g.

Question: And the Animal body weight (CIA + Compound A 3 mg/kg, Day 17, 3 mg/kg)?
Answer: The Animal body weight was 154 g and 170 g and 168 g and 169 g and 158 g and 167 g and 162 g and 156 g.

Question: What about the Animal body weight (CIA + Compound A 3 mg/kg, Day 18, 3 mg/kg) of the same molecule?
Answer: Its Animal body weight is 155 g and 169 g and 167 g and 171 g and 157 g and 168 g and 166 g.

Question: And the Animal body weight (CIA + Compound A 3 mg/kg, Day 19, 3 mg/kg)?
Answer: The Animal body weight was 156 g and 169 g and 168 g and 165 g and 166 g and 152 g.

Question: And the Animal body weight (CIA + Compound A 3 mg/kg, Day 20, 3 mg/kg)?
Answer: Its Animal body weight is 155 g and 165 g and 164 g and 162 g and 161 g and 170 g and 163 g and 153 g.

Question: What about the Animal body weight (CIA + Compound A 3 mg/kg, Day 21, 3 mg/kg) of the same molecule?
Answer: Its Animal body weight is 156 g and 166 g and 165 g and 163 g and 162 g and 155 g.

Question: What about the Animal body weight (CIA + Compound A 10 mg/kg, Day 0, 10 mg/kg) of the same molecule?
Answer: Its Animal body weight is 173 g and 164 g and 167 g and 159 g and 160 g and 156 g and 161 g and 158 g.

Question: What about the Animal body weight (CIA + Compound A 10 mg/kg, Day 1, 10 mg/kg) of the same molecule?
Answer: Its Animal body weight is 165 g and 168 g and 171 g and 163 g and 164 g and 154 g and 162 g.

Question: And the Animal body weight (CIA + Compound A 10 mg/kg, Day 2, 10 mg/kg)?
Answer: Its Animal body weight is 170 g and 167 g and 159 g and 164 g and 154 g and 161 g and 162 g.

Question: And the Animal body weight (CIA + Compound A 10 mg/kg, Day 3, 10 mg/kg)?
Answer: Its Animal body weight is 169 g and 167 g and 171 g and 158 g and 170 g and 154 g and 157 g and 160 g.

Question: What about the Animal body weight (CIA + Compound A 10 mg/kg, Day 4, 10 mg/kg) of the same molecule?
Answer: The Animal body weight was 169 g and 163 g and 160 g and 168 g and 155 g and 161 g and 162 g.

Question: And the Animal body weight (CIA + Compound A 10 mg/kg, Day 5, 10 mg/kg)?
Answer: The Animal body weight was 167 g and 172 g and 161 g and 170 g and 160 g and 163 g and 166 g.

Question: What about the Animal body weight (CIA + Compound A 10 mg/kg, Day 6, 10 mg/kg) of the same molecule?
Answer: Its Animal body weight is 168 g and 167 g and 172 g and 165 g and 170 g and 155 g and 162 g.

Question: And the Animal body weight (CIA + Compound A 10 mg/kg, Day 7, 10 mg/kg)?
Answer: Its Animal body weight is 164 g and 168 g and 173 g and 160 g and 153 g and 159 g.

Question: And the Animal body weight (CIA + Compound A 10 mg/kg, Day 8, 10 mg/kg)?
Answer: The Animal body weight was 164 g and 165 g and 160 g and 155 g and 158 g.

Question: And the Animal body weight (CIA + Compound A 10 mg/kg, Day 9, 10 mg/kg)?
Answer: The Animal body weight was 165 g and 168 g and 160 g and 152 g and 162 g and 166 g.

Question: And the Animal body weight (CIA + Compound A 10 mg/kg, Day 10, 10 mg/kg)?
Answer: The Animal body weight was 172 g and 161 g and 167 g and 153 g.

Question: And the Animal body weight (CIA + Compound A 10 mg/kg, Day 11, 10 mg/kg)?
Answer: The Animal body weight was 173 g and 170 g and 162 g and 167 g and 152 g and 160 g and 168 g.

Question: What about the Animal body weight (CIA + Compound A 10 mg/kg, Day 12, 10 mg/kg) of the same molecule?
Answer: Its Animal body weight is 173 g and 170 g and 160 g and 168 g and 153 g and 165 g.

Question: And the Animal body weight (CIA + Compound A 10 mg/kg, Day 13, 10 mg/kg)?
Answer: The Animal body weight was 170 g and 172 g and 157 g and 162 g and 156 g and 160 g and 166 g.

Question: And the Animal body weight (CIA + Compound A 10 mg/kg, Day 14, 10 mg/kg)?
Answer: The Animal body weight was 169 g and 170 g and 154 g and 161 g and 157 g and 163 g and 160 g.

Question: And the Animal body weight (CIA + Compound A 10 mg/kg, Day 15, 10 mg/kg)?
Answer: The Animal body weight was 162 g and 170 g and 169 g and 154 g and 160 g and 157 g and 167 g.

Question: And the Animal body weight (CIA + Compound A 10 mg/kg, Day 16, 10 mg/kg)?
Answer: Its Animal body weight is 163 g and 165 g and 171 g and 153 g and 157 g and 154 g and 164 g.

Question: What about the Animal body weight (CIA + Compound A 10 mg/kg, Day 17, 10 mg/kg) of the same molecule?
Answer: Its Animal body weight is 164 g and 162 g and 166 g and 155 g and 168 g and 160 g and 154 g.

Question: And the Animal body weight (CIA + Compound A 10 mg/kg, Day 18, 10 mg/kg)?
Answer: Its Animal body weight is 161 g and 160 g and 168 g and 155 g and 167 g and 162 g and 153 g.

Question: And the Animal body weight (CIA + Compound A 10 mg/kg, Day 19, 10 mg/kg)?
Answer: Its Animal body weight is 163 g and 156 g and 170 g and 155 g and 165 g and 161 g and 153 g.

Question: And the Animal body weight (CIA + Compound A 10 mg/kg, Day 20, 10 mg/kg)?
Answer: The Animal body weight was 164 g and 158 g and 167 g and 157 g and 165 g and 163 g and 153 g.

Question: And the Animal body weight (CIA + Compound A 10 mg/kg, Day 21, 10 mg/kg)?
Answer: Its Animal body weight is 162 g and 155 g and 167 g and 160 g and 164 g and 165 g and 151 g and 163 g.

Question: What about the “Animal body weight percent change (%)” value (Day 0, Group 5 (CIA + Compound A 1 mg/kg)) of the same molecule?
Answer: Its value is 0.00%.

Question: What about the “Animal body weight percent change (%)” value (Day 0, Group 6 (CIA + Compound A 3 mg/kg)) of the same molecule?
Answer: Its value is 0.00%.

Question: What about the “Animal body weight percent change (%)” value (Day 0, Group 7 (CIA + Compound A 10 mg/kg)) of the same molecule?
Answer: Its value is 0.00%.

Question: What about the “Animal body weight percent change (%)” value (Day 1, Group 5 (CIA + Compound A 1 mg/kg), 1 mg/kg) of the same molecule?
Answer: Its value is 2.45% and 2.42% and −3.66% and 4.32% and 1.97% and 0.59% and 0.00% and 4.29%.
